In article PMC8342540, “The middle lipin domain adopts a membrane-binding dimeric protein fold” (Nature Communications, 2021):
These are yes or no findings as the source states them, for the method shown. In cells and extracts the contact can be indirect. Some results given as binding are weak or reduced against the parent protein; the word gives no strength. Where a sequence is shown, tags or fusion partners need not be part of it.

T1: wild-type lipin 1-V5 (full-length mouse lipin 1α, residues 1–891, C-terminal V5-His) (mouse) (UniProt Q91ZP3)
T1 sequence: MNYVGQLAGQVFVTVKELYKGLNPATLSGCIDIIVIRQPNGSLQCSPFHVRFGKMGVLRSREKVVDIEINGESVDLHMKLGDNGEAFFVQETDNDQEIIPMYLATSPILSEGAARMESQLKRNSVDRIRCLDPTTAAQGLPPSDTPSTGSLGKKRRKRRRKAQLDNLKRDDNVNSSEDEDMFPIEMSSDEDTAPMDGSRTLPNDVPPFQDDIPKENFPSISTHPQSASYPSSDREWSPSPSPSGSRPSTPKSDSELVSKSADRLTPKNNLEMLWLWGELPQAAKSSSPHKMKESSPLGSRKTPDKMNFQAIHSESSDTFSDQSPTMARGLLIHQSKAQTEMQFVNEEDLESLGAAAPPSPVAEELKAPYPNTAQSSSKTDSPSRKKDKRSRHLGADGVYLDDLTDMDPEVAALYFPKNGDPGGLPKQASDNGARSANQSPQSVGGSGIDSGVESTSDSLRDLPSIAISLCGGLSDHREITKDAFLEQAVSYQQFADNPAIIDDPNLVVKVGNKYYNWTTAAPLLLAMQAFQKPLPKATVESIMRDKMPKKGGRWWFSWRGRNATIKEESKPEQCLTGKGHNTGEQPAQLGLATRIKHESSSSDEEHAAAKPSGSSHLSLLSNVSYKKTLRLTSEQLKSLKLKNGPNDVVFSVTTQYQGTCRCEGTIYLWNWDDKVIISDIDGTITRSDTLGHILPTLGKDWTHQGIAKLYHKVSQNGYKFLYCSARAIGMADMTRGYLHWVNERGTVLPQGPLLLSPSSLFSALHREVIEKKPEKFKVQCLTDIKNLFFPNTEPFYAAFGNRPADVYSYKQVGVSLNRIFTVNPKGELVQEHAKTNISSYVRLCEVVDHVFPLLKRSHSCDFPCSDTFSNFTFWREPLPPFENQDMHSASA

T2: ΔM-Lip-V5 (mouse lipin 1α residues 1–891 Δ458–565, C-terminal V5-His) (mouse) (UniProt Q91ZP3)
T2 sequence: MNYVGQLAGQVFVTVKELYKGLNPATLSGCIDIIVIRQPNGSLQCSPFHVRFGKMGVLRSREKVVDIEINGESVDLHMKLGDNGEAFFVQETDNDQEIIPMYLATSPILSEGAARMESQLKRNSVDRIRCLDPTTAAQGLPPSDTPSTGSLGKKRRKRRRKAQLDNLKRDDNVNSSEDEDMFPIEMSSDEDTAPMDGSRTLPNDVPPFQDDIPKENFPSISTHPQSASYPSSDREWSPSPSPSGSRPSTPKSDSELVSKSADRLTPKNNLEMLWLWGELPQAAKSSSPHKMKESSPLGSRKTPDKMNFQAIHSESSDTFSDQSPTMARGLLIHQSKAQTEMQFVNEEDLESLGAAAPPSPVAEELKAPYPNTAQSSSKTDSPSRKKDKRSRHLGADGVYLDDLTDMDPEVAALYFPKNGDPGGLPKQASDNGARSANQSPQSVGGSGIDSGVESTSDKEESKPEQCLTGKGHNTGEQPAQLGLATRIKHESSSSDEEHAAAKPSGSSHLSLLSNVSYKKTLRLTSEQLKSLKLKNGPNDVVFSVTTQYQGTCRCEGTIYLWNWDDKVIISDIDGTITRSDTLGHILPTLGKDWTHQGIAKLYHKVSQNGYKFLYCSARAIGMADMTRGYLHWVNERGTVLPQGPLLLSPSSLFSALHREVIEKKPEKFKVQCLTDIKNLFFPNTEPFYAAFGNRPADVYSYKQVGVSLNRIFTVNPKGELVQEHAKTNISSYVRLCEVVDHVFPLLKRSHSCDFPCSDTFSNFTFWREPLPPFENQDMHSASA

T3: ΔM-Lip^xtal-V5 (mouse lipin 1α residues 1–891 Δ458–548, C-terminal V5-His) (mouse) (UniProt Q91ZP3)
T3 sequence: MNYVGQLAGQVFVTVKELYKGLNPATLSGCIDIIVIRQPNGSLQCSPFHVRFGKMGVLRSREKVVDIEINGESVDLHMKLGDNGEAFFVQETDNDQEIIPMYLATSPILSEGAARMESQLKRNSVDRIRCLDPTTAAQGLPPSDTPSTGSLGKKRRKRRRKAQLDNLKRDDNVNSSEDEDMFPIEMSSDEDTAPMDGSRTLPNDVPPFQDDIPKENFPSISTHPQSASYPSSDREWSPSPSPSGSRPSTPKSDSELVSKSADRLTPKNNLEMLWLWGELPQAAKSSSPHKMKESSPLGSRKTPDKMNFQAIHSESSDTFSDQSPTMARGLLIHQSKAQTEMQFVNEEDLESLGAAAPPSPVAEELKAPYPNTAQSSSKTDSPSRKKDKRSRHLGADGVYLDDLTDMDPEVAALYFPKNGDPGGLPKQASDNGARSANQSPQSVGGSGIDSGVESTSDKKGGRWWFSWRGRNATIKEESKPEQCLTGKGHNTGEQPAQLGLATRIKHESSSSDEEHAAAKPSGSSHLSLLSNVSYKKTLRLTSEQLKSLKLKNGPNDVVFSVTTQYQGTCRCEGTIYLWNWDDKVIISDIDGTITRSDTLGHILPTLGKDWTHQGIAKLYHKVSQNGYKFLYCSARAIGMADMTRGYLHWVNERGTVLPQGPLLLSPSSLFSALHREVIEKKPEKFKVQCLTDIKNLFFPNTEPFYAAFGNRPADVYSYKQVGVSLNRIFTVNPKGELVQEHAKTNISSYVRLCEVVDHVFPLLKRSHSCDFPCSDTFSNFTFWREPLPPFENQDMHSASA


Legend:
[1] = target: T1, wild-type lipin 1-V5 (full-length mouse lipin 1α, residues 1–891, C-terminal V5-His) (mouse); assay: co-IP; Hepa1-6 cells co-transfected with V5-tagged lipin 1 constructs and BirA*-HA-tagged lipins; lysis in 0.1% NP-40; IP with anti-V5, blot with anti-HA
[2] = target: T2, ΔM-Lip-V5 (mouse lipin 1α residues 1–891 Δ458–565, C-terminal V5-His) (mouse); assay: as above
[3] = target: T3, ΔM-Lip^xtal-V5 (mouse lipin 1α residues 1–891 Δ458–548, C-terminal V5-His) (mouse); assay: as above
[4] = target: T1, wild-type lipin 1-V5 (full-length mouse lipin 1α, residues 1–891, C-terminal V5-His) (mouse); assay: co-IP; independent experiments with other epitope tags: V5-tagged full-length or ΔM-Lip lipin 1 with lipin 1-FLAG or lipin 3-Myc; IP with anti-V5, blot with anti-FLAG or anti-Myc
[5] = target: T2, ΔM-Lip-V5 (mouse lipin 1α residues 1–891 Δ458–565, C-terminal V5-His) (mouse); assay: as above

binding [1]	binding [2]	binding [3]	binding [4]	binding [5]	Binder
binds	binds	binds	–	–	lipin 3-BirA*-HA (protein, UniProt Q99PI4 1-848) MNYVGQLAETVFGTVKELYRGLNPATLSGGIDVLVVRQRDGSFRCSPFHVRFGKLGVLRSREKVVDIEINGEPVDLHMKLGDSGEAFFVQELDSDEEDVPPRLCTSPIPWGGLSGFPSDSQIGTASEPEGLVITGRRKRRRRRKPRRREEDAVDSSSEELEAGAESELTLLEKPTPESPSAQEAEEPSSQPKDIHPYSDGECTPQANLSSGDLMSPKSDSELELRSLEPSPLRAESHMQWVWGRLPKVAKAERPEFSLILESMAEAICALPEEPSPSSSPSEAGVDTLSPPVLHPGVRADTFHPAVEAHCEETAVDSPLAAPESKETKTQNSRGAGHPPATKSWSWTTPESHTPSGHPQVSRGKGSLKRNQHLGPSDIYLDDLPSLDSENVALYFPKSEYGMGARRWSEPSNQKLLESPNPEHIAECTLDSVDKIELSLCGGLADNRDISLEKFTQHMVSYEDLTKNPGLLDDPNLVVKINEKHYNWAVAAPMILSLQAFQKNLPESTVDKLEKEKMPRKGGRWWFSWRRRDFPAEEHSSQREKAATRKQQGEKTEVLSSDDDVPDSPVILEVPPLPSSTPGYVPTYKKSLRLSSDQIRCLNLNEGANDVVFSVTTQYQGTCRCKATIYLWNWDDKVVISDIDGTITKSDALGHILPQLGKDWTHQGITSLYHKIHLNGYKFLYCSARAIGMADLTKGYLQWVSEHGCGLPKGPILLSPSSLFSALHREVIEKKPEVFKVACLSDIQQLFLPQRQPFHAAFGNRPNDVFAYRQVGLPESRIFTVNPRGELIQELIKSHKSTYQRLGEVVELLFPPVVRGPSTDLASPEYSNLSYWRKPLPYVDFEALA
–	–	–	binds	binds	lipin 3-Myc (protein, UniProt Q99PI4 1-848) MNYVGQLAETVFGTVKELYRGLNPATLSGGIDVLVVRQRDGSFRCSPFHVRFGKLGVLRSREKVVDIEINGEPVDLHMKLGDSGEAFFVQELDSDEEDVPPRLCTSPIPWGGLSGFPSDSQIGTASEPEGLVITGRRKRRRRRKPRRREEDAVDSSSEELEAGAESELTLLEKPTPESPSAQEAEEPSSQPKDIHPYSDGECTPQANLSSGDLMSPKSDSELELRSLEPSPLRAESHMQWVWGRLPKVAKAERPEFSLILESMAEAICALPEEPSPSSSPSEAGVDTLSPPVLHPGVRADTFHPAVEAHCEETAVDSPLAAPESKETKTQNSRGAGHPPATKSWSWTTPESHTPSGHPQVSRGKGSLKRNQHLGPSDIYLDDLPSLDSENVALYFPKSEYGMGARRWSEPSNQKLLESPNPEHIAECTLDSVDKIELSLCGGLADNRDISLEKFTQHMVSYEDLTKNPGLLDDPNLVVKINEKHYNWAVAAPMILSLQAFQKNLPESTVDKLEKEKMPRKGGRWWFSWRRRDFPAEEHSSQREKAATRKQQGEKTEVLSSDDDVPDSPVILEVPPLPSSTPGYVPTYKKSLRLSSDQIRCLNLNEGANDVVFSVTTQYQGTCRCKATIYLWNWDDKVVISDIDGTITKSDALGHILPQLGKDWTHQGITSLYHKIHLNGYKFLYCSARAIGMADLTKGYLQWVSEHGCGLPKGPILLSPSSLFSALHREVIEKKPEVFKVACLSDIQQLFLPQRQPFHAAFGNRPNDVFAYRQVGLPESRIFTVNPRGELIQELIKSHKSTYQRLGEVVELLFPPVVRGPSTDLASPEYSNLSYWRKPLPYVDFEALA
binds	binds	binds	–	–	lipin 2-BirA*-HA (protein, UniProt Q99PI5 1-893) MNYVGQLAGQVLVTVKELYKGINQATLSGCIDVVVVRQQDGSYQCSPFHVRFGKLGVLRSKEKVIDIEINGSAVDLHMKLGDNGEAFFVEETEEEYEKLPAYLATSPIPTEDQFFKHIETPLVKSSGNERPAQSSDVSHTLESEAVFTQSSVKKKKRRRKKCKQDNRKEEQAASPVAEDVGDVGVSSDDEKRAQAARGSSNASLKEEDYKEPSLFHSGDNYPLSDGDWSPLETTYPQAVCPKSDSELEVKPSESLLRSEPHMEWTWGGFPESTKVTKRERYDYHPRTATITPSENTHFRVIPSEDSLIREVEKDATVEDTTCTIVKPKPRALCKQLSDAASTELPESPLEAPQISSLLDADPVPSPSAEAPSEPKPAAKDSPTKKKGVHKRSQHQGPDDIYLDDLKALEPEVAALYFPKSDTDPGSRQWPESDTFSGSQSPQSVGSAAADSGTECLSDSAMDLPDVTLSLCGGLSENGEISKEKFMEHIITYHEFAENPGLIDNPNLVIRIYNRYYNWALAAPMILSLQVFQKSLPKATVESWVKDKMPKKSGRWWFWRKKESMIKQLPETKEGKSEVPPANDLPSNAEEPTSARPAENDTSSDEGSQELEESIKVDPITVETLSHCGTASYKKSLRLSSDQIAKLKLHDGPNDVVFSITTQYQGTCRCAGTIYLWNWNDKVIISDIDGTITKSDALGQILPQLGKDWTHQGIARLYHSINENGYKFLYCSARAIGMADMTRGYLHWVNDKGTILPRGPLMLSPSSLFSAFHREVIEKKPEKFKIECLNDIKNLFAPSRQPFYAAFGNRPNDVYAYTQVGVPDCRIFTVNPKGELIQERTKGNKSSYHRLSELVEHVFPLLSKEQNSAFPCPEFSSFCYWRDPIPDLDLDDLA
